## Assay results

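A panel of P. falciparum strains inside erythrocytes is exposed to compounds for three days, then a DNA-binding dye reports the amount of parasite DNA.
Each compound was titrated across a series from about 0.000037 to 29 µM.
The number is the fitted AC50, the concentration giving a half-maximal change in signal; a lower value means higher potency, whether the curve shows a decrease or an increase.
Calls follow the curve class and fit quality: every row here is inconclusive, covering signal-raising curves and weak, poorly fitted, partial or highest-dose-only inhibition curves.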

Values are in nM.
Every entry below has the call inconclusive.
These entries are mostly ones the record files as inconclusive; other results of the assay are not listed here.
A potency from a partial, single-point or poor curve is only a rough figure.

compound	condition	potency (nM)	remark
O=c1[nH]c2ccccc2n1CCCN1CCN(C(c2ccccc2)c2ccccc2)CC1	CP211	11995	inhibitor, single point
O=c1[nH]c2ccccc2n1CCCN1CCN(C(c2ccccc2)c2ccccc2)CC1	CP305	5358	inhibitor, partial curve, poor fit
O=c1[nH]c2ccccc2n1CCCN1CCN(C(c2ccccc2)c2ccccc2)CC1	ATS95	17782	inhibitor, single point
O=c1[nH]c2ccccc2n1CCCN1CCN(C(c2ccccc2)c2ccccc2)CC1	DFO2036	17782	inhibitor, single point
O=c1[nH]c2ccccc2n1CCCN1CCN(C(c2ccccc2)c2ccccc2)CC1	AS120	10000	inhibitor, single point
O=c1[nH]c2ccccc2n1CCCN1CCN(C(c2ccccc2)c2ccccc2)CC1	CP203	9528	inhibitor, partial curve
O=c1[nH]c2ccccc2n1CCCN1CCN(C(c2ccccc2)c2ccccc2)CC1	TAB165	11220	inhibitor, single point
O=c1[nH]c2ccccc2n1CCCN1CCN(C(c2ccccc2)c2ccccc2)CC1	CP250	17782	inhibitor, single point
O=c1[nH]c2ccccc2n1CCCN1CCN(C(c2ccccc2)c2ccccc2)CC1	CP185	10000	inhibitor, single point
O=c1[nH]c2ccccc2n1CCCN1CCN(C(c2ccccc2)c2ccccc2)CC1	CP256	12589	inhibitor, single point
O=c1[nH]c2ccccc2n1CCCN1CCN(C(c2ccccc2)c2ccccc2)CC1	PC49	12589	inhibitor, single point
O=c1[nH]c2ccccc2n1CCCN1CCN(C(c2ccccc2)c2ccccc2)CC1	CP329	13459	inhibitor, single point
O=c1[nH]c2ccccc2n1CCCN1CCN(C(c2ccccc2)c2ccccc2)CC1	CP247	7943	inhibitor, partial curve
O=c1[nH]c2ccccc2n1CCCN1CCN(C(c2ccccc2)c2ccccc2)CC1	AA1029	11220	inhibitor, single point
O=c1[nH]c2ccccc2n1CCCN1CCN(C(c2ccccc2)c2ccccc2)CC1	CP268	21331	inhibitor, partial curve, poor fit
O=c1[nH]c2ccccc2n1CCCN1CCN(C(c2ccccc2)c2ccccc2)CC1	CP217	8912	inhibitor, single point
O=c1[nH]c2ccccc2n1CCCN1CCN(C(c2ccccc2)c2ccccc2)CC1	CP335	10690	inhibitor, single point
O=c1[nH]c2ccccc2n1CCCN1CCN(C(c2ccccc2)c2ccccc2)CC1	CP191	11220	inhibitor, single point
CCCCCCCCCCCCCCCC[N+](C)(C)C	Dd2	17782	inhibitor, single point
CCCCCCCCCCCCCCCC[N+](C)(C)C	CP252	17782	inhibitor, single point
CCCCCCCCCCCCCCCC[N+](C)(C)C	CP194	19011	inhibitor, single point
CCCCCCCCCCCCCCCC[N+](C)(C)C	ATS95	11220	inhibitor, single point
CCCCCCCCCCCCCCCC[N+](C)(C)C	CP217	10000	inhibitor, single point
CCCCCCCCCCCCCCCC[N+](C)(C)C	DFO2036	12589	inhibitor, single point
CCCCCCCCCCCCCCCC[N+](C)(C)C	CP269	15101	inhibitor, single point
CCCCCCCCCCCCCCCC[N+](C)(C)C	PC26	15101	inhibitor, single point
CCCCCCCCCCCCCCCC[N+](C)(C)C	DIV30	15101	inhibitor, single point
CCCCCCCCCCCCCCCC[N+](C)(C)C	CP256	10000	inhibitor, single point
CCCCCCCCCCCCCCCC[N+](C)(C)C	PC15	17782	inhibitor, single point
CCCCCCCCCCCCCCCC[N+](C)(C)C	CP203	13459	inhibitor, single point
CCCCCCCCCCCCCCCC[N+](C)(C)C	CP185	10000	inhibitor, single point
CCCCCCCCCCCCCCCC[N+](C)(C)C	CP266	19011	inhibitor, single point
CCCCCCCCCCCCCCCC[N+](C)(C)C	FAB9	12589	inhibitor, single point
CCCCCCCCCCCCCCCC[N+](C)(C)C	CP192	13459	inhibitor, single point
CCCCCCCCCCCCCCCC[N+](C)(C)C	P93_24	15848	inhibitor, single point
CCCCCCCCCCCCCCCC[N+](C)(C)C	CP262	19011	inhibitor, single point
CCCCCCCCCCCCCCCC[N+](C)(C)C	CP238	15848	inhibitor, single point
CCCCCCCCCCCCCCCC[N+](C)(C)C	N140	10000	inhibitor, single point
CCCCCCCCCCCCCCCC[N+](C)(C)C	PAD	10000	inhibitor, single point
CCCCCCCCCCCCCCCC[N+](C)(C)C	CP201	19011	inhibitor, single point
CCCCCCCCCCCCCCCC[N+](C)(C)C	P94_40	8912	inhibitor, single point
CCCCCCCCCCCCCCCC[N+](C)(C)C	CP247	17782	inhibitor, single point
CCCCCCCCCCCCCCCC[N+](C)(C)C	CP191	11220	inhibitor, single point
CCCCCCCCCCCCCCCC[N+](C)(C)C	CP315	19011	inhibitor, single point
CCCCCCCCCCCCCCCC[N+](C)(C)C	JCK	14125	inhibitor, single point
CCCCCCCCCCCCCCCC[N+](C)(C)C	ATS189	8912	inhibitor, single point
CCCCCCCCCCCCCCCC[N+](C)(C)C	CP305	13459	inhibitor, single point
CCCCCCCCCCCCCCCC[N+](C)(C)C	HB3	10000	inhibitor, single point
CCCCCCCCCCCCCCCC[N+](C)(C)C	CP215	19011	inhibitor, single point
O=c1c(O)c(-c2ccc(O)c(O)c2)oc2cc(O)cc(O)c12	TAB113	17782	inhibitor, single point
O=c1c(O)c(-c2ccc(O)c(O)c2)oc2cc(O)cc(O)c12	7G8	11220	inhibitor, single point
O=c1c(O)c(-c2ccc(O)c(O)c2)oc2cc(O)cc(O)c12	CP185	10000	inhibitor, single point
O=c1c(O)c(-c2ccc(O)c(O)c2)oc2cc(O)cc(O)c12	DIV30	13459	inhibitor, single point
O=c1c(O)c(-c2ccc(O)c(O)c2)oc2cc(O)cc(O)c12	PC26	19011	inhibitor, single point
O=c1c(O)c(-c2ccc(O)c(O)c2)oc2cc(O)cc(O)c12	CP237	12589	inhibitor, single point
O=c1c(O)c(-c2ccc(O)c(O)c2)oc2cc(O)cc(O)c12	CP256	10000	inhibitor, single point

Some entries from above, unchanged:

compound,condition,potency (nM),remark
CCCCCCCCCCCCCCCC[N+](C)(C)C,DFO2036,12589,"inhibitor, single point"
CCCCCCCCCCCCCCCC[N+](C)(C)C,CP185,10000,"inhibitor, single point"
O=c1c(O)c(-c2ccc(O)c(O)c2)oc2cc(O)cc(O)c12,PC26,19011,"inhibitor, single point"
CCCCCCCCCCCCCCCC[N+](C)(C)C,CP262,19011,"inhibitor, single point"
O=c1[nH]c2ccccc2n1CCCN1CCN(C(c2ccccc2)c2ccccc2)CC1,CP185,10000,"inhibitor, single point"

Source: PubChem BioAssay AID504749 (NCATS, 2011).